Results: patent publication US20100272711A1, “COMPOSITIONS AND METHODS FOR THE TREATMENT AND PREVENTION OF CARDIOVASCULAR DISEASES” (THOMAS JEFFERSON UNIVERSITY, priority 2007, published 2010)
At least one structure is not confirmed: it was looked up by name or label, or the drawing left a doubt.

What was measured:
[1] = tested on: cardiac A1-AR expression (tTA transactivation); assay: Doxycycline-regulated A1-AR transgene expression (tet-off system) in A1-TG mice; type: in vivo, mouse; conditions: DOX continuously to pregnant mothers and offspring; six weeks of age; vs A1-TGCon
From the text: Transgenic mouse generation. The human A1-AR cDNA was cloned into a cardiac-specific and inducible controlled vector (TREMHC)^64 composed of a modified mouse α-myosin heavy chain minimal promoter fused with nucleotide binding sites for tetracyline transactivating factor (tTA).^33 A1-AR transgenic mice, engineered on a FVB background (PolyGene, Switzerland), were crossed with mice that expressed tTA in the heart (MHC-tTA) (FIG. 1A). In this “tet-off” inducible system, the stable tetracycline analog, doxycycline (DOX), inhibits tTA transactivation and was administered to mice at 300 mg/kg of mouse diet (Bio-Serv, NJ). Survival studies were performed using both male and female mice and found no statistical significant differences. Therefore, only male mice were used for subsequent studies. All protocols were approved by the Institutional Animal Care and Use Committee of Thomas Jefferson University.
Doxycyline-regulated A1-AR expression. The stable tetracycline analog, doxycycline (DOX), inhibits tTA transactivation. The inventors determined a minimal dose of DOX (300 mg/kg of mouse diets) that attenuated A1-AR expression, which, in turn prevented cardiomyopathy. […] To generate inducible A1-AR transgenic mice (A1-TGInd), DOX was removed when mice reached three-weeks of age. […] At six weeks of age, A1-AR protein expression in A1-TGCcon and A1-TGInd was identical (FIGS. 2B and C). […]

A1-TGCon mice = assay: DOX treatment of A1-TGCon mice with cardiomyopathy; type: in vivo, mouse
[2] = A1-TGCon mice fed DOX from 3 weeks
[3] = A1-TGCon mice fed DOX from 3 weeks, assessed at 12 weeks

C[C@H]1c2cccc(O)c2C(=O)C2=C(O)[C@]3(O)C(=O)C(C(N)=O)=C(O)[C@@H](N(C)C)[C@@H]3[C@@H](O)[C@@H]21 [DOX, doxycycline]
cardiac A1-AR expression [1]: significantly attenuated
collagen staining (Picro-sirius Red) (A1-TGCon mice; [2]): reversed collagen staining
gene expression profile (SERCA, PLB, ANP, collagen subtypes) (A1-TGCon mice; [2]): corrected gene expression profile towards normal levels
LV dimension (A1-TGCon mice; [3]): modulated LV dimension
fractional shortening (A1-TGCon mice; [3]): increased fractional shortening
ventricular weight (A1-TGCon mice; [3]): normalized ventricular weight
survival (Kaplan-Meier) (A1-TGCon mice; A1-TGCon mice with or without DOX from 3 weeks of age, P<0.01): enhanced the survival of A1-TGCon mice
